In all, about 59,000 compounds went through this assay and about 35 (0.06%) were called active. This list was built around the results that the source calls inconclusive (neither active nor inactive); the mix of calls is not that of the screen. No stated cut-off is given here; in the data, active means max dye-equivalent concentration above about 10 nM; inconclusive means between about 1.1 nM and that limit; inactive means weaker than that.
assay: qHTS Assay for Spectroscopic Profiling in Texas Red Spectral Region; settings: Compound fluorescence, Texas Red channel, 547/618 nm; active compounds read high
How it was run: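 qHTS profiling of intrinsic compound fluorescence; 100 mM Tris pH 8.0; 15 min RT; ex 547 / em 618 nm; response expressed as Texas Red dye-equivalent concentration from six-point plate standard.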

| SMILES | max dye-equivalent concentration |
| --- | --- |
| N#CC1=C(N)N(c2ccccc2)C(c2ccco2)C1(C#N)C#N (configuration not stated) | inconclusive: 1.1 nM |
| CCOCCOC(=O)C1=C(C)N(C)C(=O)NC1c1cc(Cl)c(O)c(OCC)c1 (configuration not stated) | inconclusive: 2.1 nM |
| O=S(=O)(c1ccc(F)c2ccccc12)N1CCCCC1 | inconclusive: 1.1 nM |
| O=C(NC1CCCCC1)NC1CCN(S(=O)(=O)c2ccc3c(c2)OCCO3)CC1 | inconclusive: 1.3 nM |
| COc1ccc(C(=O)N2CCC3(CC2)CCN(c2ccccc2)CC3)cc1 | inactive |
| CN(Cc1cnn(C)c1)C(=O)c1cc2ccccc2oc1=O | inconclusive: 1.5 nM |
| COc1ccc(-c2nc3nc(C)cc(C)n3n2)cc1 | inconclusive: 1.1 nM |
| COc1cccc(OCC(O)CN2CCC(Cc3ccccc3)CC2)c1 (configuration not stated) | inconclusive: 1.1 nM |
| O=c1c2ccccc2nnn1CSc1nnc2ccccn12 | inconclusive: 2.7 nM |
| O=C(Nc1ccc(Oc2ccc(Cl)cc2)cc1)c1ncn[nH]1 | inconclusive: 1.5 nM |
| CC(C)Cn1nc(NS(=O)(=O)c2ccccc2)c2cc3ccccc3nc21 | inconclusive: 1.1 nM |
| NS(=O)(=O)c1ccc(-n2nncc2C23CC4CC(CC(C4)C2)C3)cc1 | inconclusive: 1.2 nM |
| Cc1cn(CC[C@H](N)C(=O)O)c(=O)[nH]c1=O | inconclusive: 1.2 nM |
| COc1cccc(-c2cnc(NCc3cc(Cl)ccc3O)n2C)c1 | inconclusive: 1.1 nM |
| CCOC(=O)c1cnn2c(C)cc(-c3ccccc3)nc12 | inconclusive: 1.9 nM |
| Cc1ccc(S(=O)(=O)N2CCN(S(=O)(=O)c3ccc4c(c3)OCCO4)CC2)cc1 | inconclusive: 1.2 nM |
| CCOc1ccccc1Nc1ccc(N)cc1S(=O)(=O)O | inconclusive: 1.1 nM |
| Cc1cc(C)cc(NC(=O)C2CCCC2)c1 | inconclusive: 1.4 nM |
| CCOC(=O)C1=C(C)NC(C)=C(C(=O)OCC)C1C(=O)OCC(=O)N1CCc2ccccc2C1 | inconclusive: 1.2 nM |
| O=C(OCC(=O)N1CCc2ccccc21)C1=COCCO1 | inconclusive: 1.2 nM |
| CCn1c(CSc2ncccn2)nnc1SCC(=O)N1c2ccccc2CC1C (configuration not stated) | inconclusive: 1.1 nM |
| COC(=O)C1=C(N)Oc2cc(C)n(C)c(=O)c2C1c1ccc(Cl)cc1 (configuration not stated) | inconclusive: 1.6 nM |

| SMILES | max dye-equivalent concentration |
| --- | --- |
| CCC(=O)c1ccc(OCC(O)Cn2cnc3ccccc32)cc1 (configuration not stated) | inconclusive: 1.5 nM |
| CC(=O)c1c(C(C)=O)c(C)n(NC(=O)c2ccncc2)c1C | inconclusive: 1.3 nM |
| c1ccc2c(c1)[nH]c1c(N3CCCC3)ncnc12 | inconclusive: 1.6 nM |
| C[C@H](Oc1ccc(Oc2cnc3ccc(Cl)cc3n2)cc1)C(=O)O | inactive |
| COc1cc(C(=O)N2CCN(S(=O)(=O)c3ccc(C)cc3)CC2)ccc1OCc1c(C)noc1C | inconclusive: 1.5 nM |
| CCCC(c1nnnn1Cc1ccc(OC)cc1)N1CCN(c2ccccc2)CC1 (configuration not stated) | inconclusive: 1.2 nM |
| COCCn1c(=O)[nH]c2cc(C(=O)NCCN3CCN(c4ccc(OC)cc4)CC3)ccc2c1=O | inconclusive: 1.5 nM |
| Cc1nc(N2CCN(C(=O)c3ccco3)CC2)c2c3c(sc2n1)CCC3 | inconclusive: 2.2 nM |
| COc1ccc(OC)c(CN2CCN(C(=O)c3cccs3)CC2)c1 | inconclusive: 1.5 nM |
| CCc1[nH]c(=O)c(C#N)c2c1CCCC2 | inconclusive: 1.4 nM |
| O=C(NCc1cccnc1)C(C(=O)c1ccc(F)cc1)n1ccccc1=O (configuration not stated) | inconclusive: 1.4 nM |
| Cc1noc(C)c1COC(=O)Cn1c(C)nc2ccccc21 | inconclusive: 1.1 nM |
| Cc1ccnc(NC(=O)CCC(=O)N(CC(=O)NC2CCCCC2)Cc2ccc3c(c2)OCO3)c1 | inconclusive: 1.4 nM |
| COc1ccccc1NC(=O)C(C)NS(=O)(=O)c1ccccc1 (configuration not stated) | inconclusive: 2.3 nM |
| CCCN1CCN(CCCNC(=O)C2CCN(c3nnc(-n4cccc4)s3)CC2)CC1 | inconclusive: 1.1 nM |
| COC(=O)Nc1c(-c2ccccc2)nc2ccc(C)cn12 | inconclusive: 1.4 nM |
| O=C(NC1=NCCS1)c1cc(-c2ccccc2)nn1-c1ccccc1 | inconclusive: 1.1 nM |
| Cc1ccc(-c2nc(N)n(S(C)(=O)=O)n2)cc1 | inconclusive: 1.5 nM |
| Cc1nnc(SCC2CCCO2)n1-c1ccccc1 (configuration not stated) | inconclusive: 1.2 nM |
| Cc1ccc(/C(=C/CN2CCCC2)c2ccccn2)cc1 | inconclusive: 1.2 nM |
| CC(C)OC(=O)c1cc(NC(=O)C2C3CCC(O3)C2C(=O)O)cc(C(=O)OC(C)C)c1 (configuration not stated) | inconclusive: 1.3 nM |
| COC(=O)c1ccc(S(=O)(=O)N(Cc2cc3cc4c(cc3[nH]c2=O)OCO4)C2CCCCC2)cc1 | inconclusive: 1.1 nM |

| SMILES | max dye-equivalent concentration |
| --- | --- |
| O=C(c1ccncc1)N1CCC2(CC1)CN(c1ccc(-c3ccccc3)cc1)C2 | inconclusive: 1.1 nM |
| COCCn1c(=O)c(-c2ccccc2)nc2cnc(N3CCOCC3)nc21 | inactive |
| CCc1n[nH]c2c1/C(=N\O)CC(c1ccccc1)C2 (configuration not stated) | inconclusive: 1.7 nM |
| O=C(Nc1ccc2c(c1)OCCO2)C1CCCN(c2ncccn2)C1 (configuration not stated) | inactive |
| CC(=O)Oc1ccc(/C=C\C(=O)C[C@@H]2O[C@@H](Oc3cc(OC(C)=O)c4c(c3)O[C@@H](c3ccc(OC(C)=O)cc3)CC4=O)[C@H](OC(C)=O)[C@H](OC(C)=O)[C@@H]2OC(C)=O)cc1 | inactive |
| Cc1nn(-c2ccccc2)c(Cl)c1C(=O)NCC(=O)O | inconclusive: 2 nM |
| CCOC(=O)CNC(=O)CSc1nnnn1-c1ccc(C)c(C)c1 | inconclusive: 2.2 nM |
| O=C(OC1CCOC1=O)c1cncc(Br)c1 (configuration not stated) | inconclusive: 1.3 nM |
| COC(=O)c1cccc(NC(=O)CN2CCN(c3ccc(OC)cc3)CC2)c1 | inconclusive: 2.9 nM |
| O=C(Nc1ccc2c(c1)OCO2)C1CCCN(c2nc3ccccc3s2)C1 (configuration not stated) | active: 26 nM |
| O=C(O)CCCCCNC(=O)CCn1cnc2ccccc2c1=O | inconclusive: 1.8 nM |
| O=S1(=O)C=CC(Nc2cccc(Cl)c2)C1 (configuration not stated) | inconclusive: 2.2 nM |
| Cc1nc2c(n1O)CCC/C2=N\O | inconclusive: 1.5 nM |
| CCCC(C(=O)c1ccccc1)n1cncn1 (configuration not stated) | inconclusive: 1.1 nM |
| CC(=O)NCCc1cc2cc(C)c(C)cc2[nH]c1=O | inconclusive: 1.4 nM |
| O=C(c1ccc2c(c1)OCO2)N1CCN(c2ccc(F)cc2)CC1 | inconclusive: 1.1 nM |
| CCn1cc(C(=O)NCc2ccccc2OC)c(=O)c2ccc(C)nc21 | inconclusive: 1.3 nM |
| CN(C)CCCSC(=N)N | inconclusive: 1.1 nM |
| O=C(Nc1nc2c(s1)CCc1ccccc1-2)c1ccco1 | inconclusive: 1.1 nM |
| CCOn1c(=O)c(-c2cc3ccccc3o2)[n+]([O-])c2ccccc21 | inactive |
| CN(C)c1ccc(/C=c2\sc3nc(-c4ccccc4)nn3c2=O)cc1 | inconclusive: 1.2 nM |
| COC(=O)c1cc(Br)c(=O)n(CCC2=CCCCC2)c1 | inconclusive: 1.6 nM |

Look-ups from above.
`CCn1cc(C(=O)NCc2ccccc2OC)c(=O)c2ccc(C)nc21` – max dye-equivalent concentration: inconclusive: 1.3 nM
`O=C(c1ccncc1)N1CCC2(CC1)CN(c1ccc(-c3ccccc3)cc1)C2` – max dye-equivalent concentration: inconclusive: 1.1 nM
`O=S1(=O)C=CC(Nc2cccc(Cl)c2)C1` (configuration not stated) – max dye-equivalent concentration: inconclusive: 2.2 nM
`O=C(Nc1ccc2c(c1)OCO2)C1CCCN(c2nc3ccccc3s2)C1` (configuration not stated) – max dye-equivalent concentration: active: 26 nM

More results follow:

| SMILES | max dye-equivalent concentration |
| --- | --- |
| COc1ccccc1CNC(=O)CN1C(=O)C(C)N(c2ccc(C)cc2)C1=O (configuration not stated) | inconclusive: 1.4 nM |
| COc1ccc(NC(=O)c2cccc(NC(=O)C3C4CC5OC(=O)C3C5C4)c2)c(OC)c1 (configuration not stated) | inconclusive: 1.2 nM |
| Cn1c(C(=O)NCc2cccnc2)cc2sccc21 | inconclusive: 2 nM |
| CCOC(=O)Nc1ccc2c(c1)N(C(=O)CN1CCN(C)CC1)c1ccccc1S2 | inconclusive: 1.6 nM |
| CCSc1nnc(NC(=O)C2Cc3ccccc3CN2C(=O)c2ccco2)s1 (configuration not stated) | inactive |
| Cc1nc(C)c(C(=O)C2=C(O)C(=O)N(CCN(C)C)C2c2ccccc2)s1 (configuration not stated) | inconclusive: 1.9 nM |
| CS(=O)(=O)c1nc(-c2ccccc2)cc(C(F)(F)F)n1 | inconclusive: 1.3 nM |
| O=C(NCCc1ccccc1)c1ncn[nH]1 | inconclusive: 1.3 nM |
| COc1cc2c(N3CCOCC3)cc(O)c(CC(=O)Nc3ccccc3)c2cc1OC | inconclusive: 1.1 nM |
| CCn1c(CCCc2nc3c([nH]2)c(=O)n(C)c(=O)n3C)nc2c1c(=O)n(C)c(=O)n2C | inconclusive: 1.1 nM |
| CCCCc1nc2ccccc2c(C(=O)O)c1C | inconclusive: 1.5 nM |
| COC(=O)c1oc2ccccc2c1NC(=O)CN1CCCC1 | inconclusive: 1.1 nM |
| COc1ccc(CCN2C(=O)c3[nH]nc(-c4ccccc4O)c3C2c2ccccc2)cc1OC (configuration not stated) | inconclusive: 2.1 nM |
| COc1ccc2c(c1)-c1ccccc1S(=O)(=O)N2C(C)=O | inconclusive: 1.4 nM |
| c1cnc(NCCNc2ncccn2)nc1 | inconclusive: 1.3 nM |
| O=C1CCCN1CCCn1cnc2c([nH]c3ccc(F)cc32)c1=O | inconclusive: 1.5 nM |
| O=S(=O)(CCn1cccc1)CCn1cccc1 | inactive |
| O=S(=O)(O)c1ccc(N=Nc2ccc3c(S(=O)(=O)O)cccc3c2O)c2ccccc12 | inactive |
| O=C(N1CCOCC1)C12CCC3CC(CC(C3)C1)C2 | inconclusive: 1.1 nM |
| CCc1c(C)nc(N)n2c(SCC(=O)N3CCCC(C)C3)nnc12 (configuration not stated) | inconclusive: 1.2 nM |
| Cn1nnnc1SCC(=O)NC1CCCCC1 | inconclusive: 1.2 nM |

— PubChem BioAssay AID587 (National Center for Advancing Translational Sciences (NCATS), 2007)
